From PubChem BioAssay AID256 (DTP/NCI, 2004)
The list does not hold the whole screen: it is rich in T/C values a quarter to a half above the control, in often repeated tests (any T/C) and in doses without a T/C. Other doses and runs of a compound stand elsewhere. T/C gives the treated animals as a percentage of the vehicle group. Some entries give survivors of the animals treated and no T/C: the source files T/C as zero there, which appears to mark a toxic dose or a test without result, not a measured value. Survivors were counted at the toxicity check, usually on the fifth day, unless a day is given; later deaths do not show. Schedule codes are those of the source, read here as Q, the interval in days (D) or hours (H), X, the number of doses. For survival time, this PubChem deposit counts one and a half times the control or more as active, and values a quarter to a half above the control carry no call in these data; other NCI protocols may use other cut-offs. Some T/C values are followed by the survivors on the day toxicity was checked, most often the fifth; where none is given, no animal had died by that day. Some entries hold several experiments; the values are given in rising order. Counts like (3×) stand for listed records that agree.

Tested on: CD2F1 mice, L1210 leukemia ip, survival T/C
Assay: NCI In Vivo Anticancer Drug Screen. Data for tumor model L1210 Leukemia (intraperitoneal) in CD2F1 (CDF1) mice
Conditions: T/C endpoint: mean survival time, higher T/C = longer survival
In short: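 Vehicle-treated tumor-bearing mice served as controls (C) for compound-treated mice (T). Reported figure is T divided by C.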

[1] = dose: 8.0 mg/kg/injection, schedule: Q01DX009 (ip), vehicle: saline + alcohol

O=NN(CCCl)C(=O)NCCCl
T/C (dose: 2.0 mg/kg/injection, schedule: Q01DX009 (ip), vehicle: Klucel (hydroxypropylcellulose) (HPC)): 128, 135, 146, 161 % of control
T/C (dose: 2.0 mg/kg/injection, schedule: Q01DX009 (ip), vehicle: saline + alcohol, evaluated on day 30): 148, 156, 157, 161, 162, 164 % of control
T/C (dose: 2.0 mg/kg/injection, schedule: Q01DX009 (ip), vehicle: saline + alcohol, evaluated on day 45): 114 % of control
T/C (dose: 2.0 mg/kg/injection, schedule: Q01DX009 (ip), vehicle: saline, evaluated on day 30): 137, 141, 161, 163, 170, 185, 186 (2×), 194, 202 [5 of 6 alive], 204 % of control
T/C (dose: 2.0 mg/kg/injection, schedule: Q01DX009 (ip), vehicle: saline, evaluated on day 60): 160, 167, 174, 179 % of control
T/C (dose: 4.0 mg/kg/injection, schedule: Q01DX009 (ip), vehicle: Klucel (hydroxypropylcellulose) (HPC)): 169, 173 [5 of 6 alive], 194, 218 % of control
T/C (dose: 4.0 mg/kg/injection, schedule: Q01DX009 (ip), vehicle: saline + alcohol, evaluated on day 30): 194, 215, 226, 229, 246, 260 % of control
T/C (dose: 4.0 mg/kg/injection, schedule: Q01DX009 (ip), vehicle: saline + alcohol, evaluated on day 45): 128 % of control [4 of 6 alive]
T/C (dose: 4.0 mg/kg/injection, schedule: Q01DX009 (ip), vehicle: saline, evaluated on day 30): 184, 206, 229, 232, 236, 243, 253, 257, 262, 289, 292 % of control
T/C (dose: 4.0 mg/kg/injection, schedule: Q01DX009 (ip), vehicle: saline, evaluated on day 60): 198, 223, 234, 263 % of control
T/C (dose: 5.0 mg/kg/injection, schedule: Q01DX001 (ip), vehicle: DMSO): 127 % of control
T/C (dose: 5.0 mg/kg/injection, schedule: Q01DX001 (ip), vehicle: saline + alcohol, evaluated on day 5): 122 % of control
T/C (dose: 5.0 mg/kg/injection, schedule: Q01DX001 (ip), vehicle: saline + alcohol, evaluated on day 8): 120 % of control
T/C (dose: 5.0 mg/kg/injection, schedule: Q01DX001 (ip), vehicle: saline + alcohol, evaluated on day 30): 121 % of control
T/C (dose: 5.0 mg/kg/injection, schedule: Q01DX001 (ip), vehicle: saline + alcohol, evaluated on day 45): 133 % of control
T/C (dose: 5.0 mg/kg/injection, schedule: Q01DX001 (ip), vehicle: saline): 132 % of control
T/C (dose: 7.5 mg/kg/injection, schedule: Q01DX001 (ip), vehicle: saline + alcohol, evaluated on day 30): 123 and 127 % of control
T/C (dose: 7.5 mg/kg/injection, schedule: Q01DX001 (ip), vehicle: saline + alcohol, evaluated on day 40): 118 and 147 % of control
T/C (dose: 8.0 mg/kg/injection, schedule: Q01DX001 (ip), vehicle: saline + alcohol, evaluated on day 5): 115, 131, 146, 147 (2×), 150, 155, 160 % of control
T/C (dose: 8.0 mg/kg/injection, schedule: Q01DX001 (ip), vehicle: saline + alcohol, evaluated on day 30): 122 and 127 % of control
T/C (dose: 8.0 mg/kg/injection, schedule: Q01DX001 (ip), vehicle: saline + alcohol, evaluated on day 45): 125 % of control
T/C (dose: 8.0 mg/kg/injection, schedule: Q01DX009 (ip), vehicle: Klucel (hydroxypropylcellulose) (HPC)): 184 [5 of 6 alive], 252, 311, 319 % of control
T/C [1]: 143, 231, 232, 297, 311, 337 % of control
survivor count [1]: 3 of 6
T/C (dose: 8.0 mg/kg/injection, schedule: Q01DX009 (ip), vehicle: saline, evaluated on day 30): 159 (2×), 183, 233, 239, 255, 265, 288, 323, 325 % of control (2×)
T/C (dose: 8.0 mg/kg/injection, schedule: Q01DX009 (ip), vehicle: saline, evaluated on day 60): 427, 491, 525, 549 % of control
T/C (dose: 9.48 mg/kg/injection, schedule: Q01DX001 (ip), vehicle: saline + alcohol): 141 % of control
T/C (dose: 10.0 mg/kg/injection, schedule: Q01DX001 (ip), vehicle: Klucel (hydroxypropylcellulose) (HPC)): 130 % of control
T/C (dose: 10.0 mg/kg/injection, schedule: Q01DX001 (ip), vehicle: other): 133 % of control
T/C (dose: 10.0 mg/kg/injection, schedule: Q01DX001 (ip), vehicle: saline + alcohol, evaluated on day 5): 156 % of control
T/C (dose: 10.0 mg/kg/injection, schedule: Q01DX001 (ip), vehicle: saline + alcohol, evaluated on day 6): 166 % of control
T/C (dose: 10.0 mg/kg/injection, schedule: Q01DX001 (ip), vehicle: saline + alcohol, evaluated on day 8): 154 % of control
T/C (dose: 10.0 mg/kg/injection, schedule: Q01DX001 (ip), vehicle: saline + alcohol, evaluated on day 30): 150 % of control
T/C (dose: 10.0 mg/kg/injection, schedule: Q01DX001 (ip), vehicle: saline + alcohol, evaluated on day 45): 155 % of control
